# For at least one compound, name, drawing or mass did not settle the structure.
# Tested on: cerebral hemorrhage in rats induced by collagenase
# Assay: ICH model induced by collagenase: histopathological observation
# Assay type: in vivo, Wistar rats
# Experimental: Influence of piperphentonamine hydrochloride on pathological morphology of cerebral hemorrhage in rats was observed. Each group animals were selected randomly, anesthetized deeply by chloral hydrate at predetermined time point, decollated and the brain were taken out rapidly, then, the brain tissue slices with hematoma (about 5 mm) were cut, and put into 10% formaldehyde solution immediately, fixed for 24 h followed by dehydration by graded ethanol, transparentizing by xylene, immersing in paraffin, embedding, slicing (5 μm), HE staining and sealing. The pathological changes area and the pathological change of the adjacent brain tissue were observed by optical microscope.
smiles,measurement,setting,value
"COCCOC(=O)C1=C(C)NC(C)=C(C(=O)OC(C)C)C1c1cccc([N+](=O)[O-])c1 (centres unmarked) [nimodipine, reference compound]",histopathological observation,small dose maleate (2 mg/kg) or nimodipine (0.5 mg/kg) in advance,could ease the pathological changes above-mentioned in different levels
same,pathological morphology of cerebral hemorrhage,small doses (0.5 mg/kg) in advance,could ease the pathological changes above-mentioned in different levels

# — US8916607B2, “Use of piperphentonamine or salts thereof in manufacture of medicaments for treating brain diseases” (Guangzhou Municipal Zhongwei Biotechnology Limited Company, priority 2009, dated 2014)
